Test results from patent US20060228349A1.
Results are given in words; binding and its absence hold for the method and conditions named. Some results given as binding are weak or reduced against the parent protein; the word gives no strength.

Target: Biotinylated ADDL preparations (bADDLs)
Test: titration ELISA, 10% biotinylated ADDL on streptavidin plates

| binding | Binder |
| --- | --- |
| binds | humanized 26D6, veneered, HCVR Ven1 IgG1 / LCVR Ven1 Kappa (antibody, V domains shown) VH: QVTLKESGPGIVQPSQTLSLTCSFSGFSLSTSGMGVSWIRQPSGKGLEWLAHIYWDDDKQYNPSLKSRLTISKDTSKNQVFLTITSVDTVDTATYYCVRRASSSRYDDQFDYWGQGTPLTVSS VL: DVVMTQTPLSLPVSLGDPASISCRASQSIVHSNGNTYLEWYLQKPGQSPKLLIYRVSNRFSGVPDRFSGSGSGTDFTLKISRVEAEDLGVYFCFQVTHVPLTFGAGTKLELKR |
| binds | humanized 26D6, veneered, HCVR Ven1 IgG1 / LCVR Ven2 Kappa (antibody, V domains shown) VH: QVTLKESGPGIVQPSQTLSLTCSFSGFSLSTSGMGVSWIRQPSGKGLEWLAHIYWDDDKQYNPSLKSRLTISKDTSKNQVFLTITSVDTVDTATYYCVRRASSSRYDDQFDYWGQGTPLTVSS VL: DVVMTQTPLSLPVSLGDPASISCRASQSIVHSNGNTYLEWYLQKPGQSPKLLIYRVSNRFSGVPDRFSGSGSGTDFTLKISRVEAEDVGVYFCFQVTHVPLTFGGGTKLELKR |
